Measured values as given in paper PMC8151980.
Results are given in words; binding and its absence hold for the method and conditions named. Binding seen in cells or lysates may run through a third protein. Some results given as binding are weak or reduced against the parent protein; the word gives no strength. Where a sequence is shown, tags or fusion partners need not be part of it.

T1: hexa-histidine-tagged, 35S-methionine-labeled chloroplast envelope quinone oxidoreductase homologue (ceQORH-(His)6) (UniProt Q9SV68)
T1 sequence (chain, 35S-methionine-labeled): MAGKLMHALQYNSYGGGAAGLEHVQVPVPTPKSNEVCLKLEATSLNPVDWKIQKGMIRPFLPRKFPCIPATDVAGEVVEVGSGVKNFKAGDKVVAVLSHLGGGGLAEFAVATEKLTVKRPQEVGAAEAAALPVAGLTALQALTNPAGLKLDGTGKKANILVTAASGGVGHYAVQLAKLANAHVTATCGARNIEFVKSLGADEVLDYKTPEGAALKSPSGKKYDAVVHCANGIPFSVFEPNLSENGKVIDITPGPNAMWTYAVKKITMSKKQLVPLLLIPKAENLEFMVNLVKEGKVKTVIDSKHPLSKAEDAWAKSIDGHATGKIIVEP

B1: HP20 (At4g26670) (protein, UniProt Q94EH2 1-210)
chain: MAANDSSNAIDIDGNLDSDSNLNTDGDEATDNDSSKALVTIPAPAVCLFRFAGDAAGGAVMGSIFGYGSGLFKKKGFKGSFADAGQSAKTFAVLSGVHSLVVCLLKQIRGKDDAINVGVAGCCTGLALSFPGAPQALLQSCLTFGAFSFILEGLNKRQTALAHSVSLRHQTGLFQDHHRALPLSLALPIPEEIKGAFSSFCKSLAKPRKF
B2: TIC55 (protein, UniProt Q9SK50 51-539)
chain: AVAGTAVSDQTEGGGDVLLNPEEEKRVEVADYDWTEEWYPLYLTKNVPEDAPLGLTVYDRQIVLYKDGEGTLRCYEDRCPHRLAKLSEGQLIDGRLECLYHGWQFEGEGKCVKIPQLPASAKIPKAACVKTYEVKDSQGVVWVWMSTKTPPNPEKLPWFENFARPGFFDISTTHELPYDHSILLENLMDPAHVPISHDRTDFTAKREDAQPLVFEVTERSNRGFAGTWGREKEGGKGSNLLRFDAPCVLQNNREFEGKDGVKNYFSGLFLCRPTGQGKSMLIVRFGVTKRSPLVSVLPQWFWHQNACKVFEQDMGFLSSQNEVLMKEKVPTKDLYLNLKSSDTWVAEYRKWMDKVGHGMPYHFGHRTISLPKVPPVVEHAPAGLIAALSASYPAKGGIGTMHAPNLANRYFRHIIHCRSCSNVIKSFELWKNILSATAVALTALAILVVSRQWKAVLLGSAALCSAAAYTCLRAINLNTNNFIRTHRRL
B3: HP30 (At3g49560) (protein, UniProt Q9SCK3 1-261)
chain: MVVGGGGEGDQKRSSGEMMAMASLFNDQQNPIQQFQVKFKEVETNFKTWLSKQSIPVEAAVVSTMSGVQGAFIGGLMGTLSPEMPQAGVDPQAIASMKQAQALVGGPWVQARNFAAITGVNAGIASVMKRIRGKEDIESAVVAALGSGFAYSLVSQGLQGQPMNAITTAAGFAVFQGVFFKLGERFSKPSTEDPFFTRGRTMLVKLGLEKYEKNFKKGLLTDPTLPLLTDSALKDANIPPGPRLMILDHIQRDPEIKGKRK
B4: HP30-2 (At5g24650) (protein, UniProt Q9FLT9 1-259)
chain: MGKDGEGDKKRETMAVMSLMKDQQNPIQQFQVKFKEIETGFKSWLSKQKLPVEAAVVTAMGGVQGAFIGGLMGTLSPEMPQAGIDPQAMASLKQTQALVGGPLVQARNFAAITGVNAGIACVMKRIRGKEDLESAVVAAFGSGVAYSLVSAGLQGQPMNAITTAAGFAVFQGVFFKLGERFSKPSVEDPYYTRGRSMLLKLGLEKYEKNFKKGLLADPTLPLLTDSALRDVSIPPGPRLLILDHIQRDPELKGKRGSRG
B5: TOC90 (protein, UniProt Q6S5G3 1-793)
chain: MKGFKDWVFALSNSMASSRPLLGSDPFFRDPHQEQDNHSQAPAAPQPVTLSEPPCSTSSDLEILPPLSQQQVPLESLYQSSIDLNGKKHNPLAKIGGLQVQFLRLVQRFGQSQNNILVSKVLYRVHLAMLIRAEESELKNVKLRQDRAKALAREQESSGIPELDFSLRILVLGKTGVGKSATINSIFGQPKSETDAFRPGTDRIEEVMGTVSGVKVTFIDTPGFHPLSSSSTRKNRKILLSIKRYVKKRPPDVVLYLDRLDMIDMRYSDFSLLQLITEIFGAAIWLNTILVMTHSAATTEGRNGQSVNYESYVGQRMDVVQHYIHQAVSDTKLENPVLLVENHPSCKKNLAGEYVLPNGVVWKPQFMFLCVCTKVLGDVQSLLRFRDSIGLGQPSSTRTASLPHLLSVFLRRRLSSGADETEKEIDKLLNLDLEEEDEYDQLPTIRILGKSRFEKLSKSQKKEYLDELDYRETLYLKKQLKEECRRRRDEKLVEEENLEDTEQRDQAAVPLPDMAGPDSFDSDFPAHRYRCVSAGDQWLVRPVYDPQGWDRDVGFDGINIETAAKINRNLFASATGQVSRDKQRFTIQSETNAAYTRNFREQTFSVAVDLQSSGEDLVYSFQGGTKLQTFKHNTTDVGVGLTSFGGKYYVGGKLEDTLLVGKRVKLTANAGQMRGSGQTANGGSFEACIRGRDYPVRNEQIGLTMTALSFKRELVLNYGLQTQFRPARGTNIDVNINMNNRKMGKINVKLNSSEHWEIALISALTMFKALVRRSKTEMTEENEEEKIVNFLVS
B6: TOC34 (protein, UniProt Q38906 1-313)
chain: MAALQTLREWIGIQQFPPATQSKLLEILGKYKEEDVSSLTVLVMGKGGVGKSSTVNSVIGEKAAAVSTFQSEGLRPTLVSRTRSGFTLNIIDTPGLIEGGYVNDQAINIIKRFLLNMTIDVLLYVDRLDVYRVDDLDRQVVGAITDAFGKEIWKKSALVLTHAQFSPPDGLNYNHFVSKRSNALLKVIQTGAQLKKQDLQGFSIPVILVENSGRCHKNESDEKILPCGTSWIPNLFNKITEISFNGNKAIHVDKKLVEGPNPNERGKKLIPLMFAFQYLLVMKPLVRAIKSDVSRESKPAWELRDSGLASRRS

target: T1, hexa-histidine-tagged, 35S-methionine-labeled chloroplast envelope quinone oxidoreductase homologue (ceQORH-(His)6); experiment: pull-down; purified 35S-ceQORH-(His)6 incubated 15 min with isolated Arabidopsis chloroplasts at 0.1 mM Mg-GTP and 0.1 mM Mg-ATP; envelope membranes detergent-solubilized (2% Triton X100, 300 mM NaCl, 20 mM imidazole); import intermediate-associated proteins purified by Ni-NTA chromatography, separated by 1D or 2D SDS-PAGE, Coomassie-stained and identified by protein sequencing; only the target purified

| Binder | binding |
| --- | --- |
| B1 | binds |
| B2 | binds |
| B3 | binds |
| B4 | binds |
| B5 | binds |
| B6 | binds |
